According to PubChem BioAssay AID194 (DTP/NCI, 2004):
Results filed as inconclusive are left out. Rule for the calls: active = survival T/C of 150% or more; inactive = T/C below 125% in these data.

System: BDF1 mice, B16 melanoma s.c., survival/tumor T/C
Assay: NCI In Vivo Anticancer Drug Screen. Data for tumor model B16 Melanoma (subcutaneous) in B6D2F1 (BDF1) mice
Conditions: endpoint: median survival time, schedule: Q01DX009 (ip), higher = longer survival
Description: The antitumor activity of compounds was measured in mice bearing transplantable tumors. Survival or tumor size were measured and the results are expressed as the measurement made in the treated group (T) divided by the measurement made in the vehicle treated control group (C). The tumor model used in this assay is B16 Melanoma (subcutaneous) in B6D2F1 (BDF1) mice

Measured: T/C

COc1cc2c(c(OC)c1OC)-c1ccc(OC)c(=O)cc1[C@@H](N)CC2
inactive: dose: 0.03 mg/kg/injection, vehicle: carboxymethylcellulose (CMC) 96 % of control | dose: 0.07 mg/kg/injection, vehicle: carboxymethylcellulose (CMC) 89 % of control | dose: 0.15 mg/kg/injection, vehicle: carboxymethylcellulose (CMC) 98 % of control | dose: 0.25 mg/kg/injection, vehicle: saline 113 % of control | dose: 0.3 mg/kg/injection, vehicle: carboxymethylcellulose (CMC) 105 % of control | dose: 0.6 mg/kg/injection, vehicle: carboxymethylcellulose (CMC) 86 % of control | dose: 0.63 mg/kg/injection, vehicle: Klucel (hydroxypropylcellulose) (HPC) 108 % of control | dose: 1.0 mg/kg/injection, vehicle: saline 104 % of control | dose: 1.25 mg/kg/injection, vehicle: Klucel (hydroxypropylcellulose) (HPC) 100 % of control | dose: 1.25 mg/kg/injection, vehicle: carboxymethylcellulose (CMC) 98 % of control | dose: 2.0 mg/kg/injection, vehicle: saline 100 % of control | dose: 2.5 mg/kg/injection, vehicle: Klucel (hydroxypropylcellulose) (HPC) 115 % of control | dose: 5.0 mg/kg/injection, vehicle: Klucel (hydroxypropylcellulose) (HPC) 108 % of control

COc1c(O)cc2c(c1OC)-c1ccc(OC)c(=O)cc1[C@@H](NC(C)=O)CC2
inactive: dose: 0.63 mg/kg/injection, vehicle: saline with Tween-80 = 103 % of control | dose: 1.25 mg/kg/injection, vehicle: saline with Tween-80 = 115 % of control | dose: 2.5 mg/kg/injection, vehicle: saline with Tween-80 = 124 % of control
